This is one part of the list. The data scatter; read single values as rough.
Compound: ClCC(=O)N[C@H]1CCCc2ccccc12
Assay: log2 mean competition ratio of IA-DTB cysteine labelling (DMSO/compound) (log2 ratio); higher = stronger cysteine engagement by compound
Details: 50 µM; treatment time: 4 h; cell line lysate: HEK293T
Protocol: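 IA-DTB competitive cysteine chemoproteomics in HEK293T RIPA lysate. Lysates were treated with compound 29 or 30 at 50 or 200 µM for 4 h, then IA-DTB (500 µM, 1 h), trypsin-digested, NeutrAvidin-enriched and analysed by diaPASEF. Competition ratio = intensity DMSO / intensity compound (n=4 treated, n=64 DMSO); binding: mean log2 CR ≥ 1 and p ≤ 0.05 plus QC filters. Target is the cysteine site.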

Sequences of proteins named here, by UniProt entry; tags and fusion partners are left off. A change or cut given only in a name is not applied to a line headed by its entry. Residues count along the entry.
UniProt Q6P4A7: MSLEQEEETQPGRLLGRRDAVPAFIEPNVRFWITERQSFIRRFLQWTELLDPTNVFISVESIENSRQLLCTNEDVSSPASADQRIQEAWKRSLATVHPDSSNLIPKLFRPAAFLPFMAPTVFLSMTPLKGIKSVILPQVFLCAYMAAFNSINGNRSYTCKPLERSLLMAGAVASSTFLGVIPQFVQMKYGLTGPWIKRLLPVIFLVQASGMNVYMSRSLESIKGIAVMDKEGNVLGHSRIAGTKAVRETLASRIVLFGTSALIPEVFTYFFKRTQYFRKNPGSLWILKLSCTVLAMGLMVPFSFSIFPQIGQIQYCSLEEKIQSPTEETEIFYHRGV
UniProt Q9BX95: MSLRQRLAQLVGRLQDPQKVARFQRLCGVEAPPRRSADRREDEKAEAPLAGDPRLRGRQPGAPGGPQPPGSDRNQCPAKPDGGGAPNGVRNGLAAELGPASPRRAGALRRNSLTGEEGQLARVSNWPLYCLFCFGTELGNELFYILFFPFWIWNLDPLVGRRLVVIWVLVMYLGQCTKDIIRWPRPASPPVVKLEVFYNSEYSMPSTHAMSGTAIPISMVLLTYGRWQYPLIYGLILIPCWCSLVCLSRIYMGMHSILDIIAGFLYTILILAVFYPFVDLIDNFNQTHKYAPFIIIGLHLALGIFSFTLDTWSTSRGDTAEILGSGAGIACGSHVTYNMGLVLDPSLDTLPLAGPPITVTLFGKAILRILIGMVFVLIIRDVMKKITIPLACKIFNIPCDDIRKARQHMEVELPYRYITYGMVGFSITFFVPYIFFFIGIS
UniProt Q92854, whole entry, looked up: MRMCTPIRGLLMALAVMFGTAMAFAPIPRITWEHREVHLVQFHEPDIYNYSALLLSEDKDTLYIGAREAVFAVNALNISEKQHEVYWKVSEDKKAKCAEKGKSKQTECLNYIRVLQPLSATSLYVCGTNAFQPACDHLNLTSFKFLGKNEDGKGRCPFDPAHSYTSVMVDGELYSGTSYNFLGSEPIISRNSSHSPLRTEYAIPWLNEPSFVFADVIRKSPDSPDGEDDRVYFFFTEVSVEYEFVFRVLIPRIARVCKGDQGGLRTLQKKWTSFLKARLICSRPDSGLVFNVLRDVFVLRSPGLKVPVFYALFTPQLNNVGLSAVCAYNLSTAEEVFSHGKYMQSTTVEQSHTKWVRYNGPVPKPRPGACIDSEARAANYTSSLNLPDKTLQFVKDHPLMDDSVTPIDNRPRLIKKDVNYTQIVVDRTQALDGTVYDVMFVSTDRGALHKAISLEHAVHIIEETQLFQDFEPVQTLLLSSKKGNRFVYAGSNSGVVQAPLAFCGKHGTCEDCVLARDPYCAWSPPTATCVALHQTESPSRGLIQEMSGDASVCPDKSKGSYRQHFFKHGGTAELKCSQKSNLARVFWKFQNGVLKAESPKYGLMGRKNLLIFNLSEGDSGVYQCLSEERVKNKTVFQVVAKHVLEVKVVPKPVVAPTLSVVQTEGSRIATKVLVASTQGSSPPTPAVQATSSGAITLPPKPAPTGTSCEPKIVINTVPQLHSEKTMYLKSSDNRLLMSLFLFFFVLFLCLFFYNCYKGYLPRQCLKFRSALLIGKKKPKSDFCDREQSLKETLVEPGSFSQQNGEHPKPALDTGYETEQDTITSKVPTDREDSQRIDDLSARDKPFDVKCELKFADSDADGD
UniProt P55735: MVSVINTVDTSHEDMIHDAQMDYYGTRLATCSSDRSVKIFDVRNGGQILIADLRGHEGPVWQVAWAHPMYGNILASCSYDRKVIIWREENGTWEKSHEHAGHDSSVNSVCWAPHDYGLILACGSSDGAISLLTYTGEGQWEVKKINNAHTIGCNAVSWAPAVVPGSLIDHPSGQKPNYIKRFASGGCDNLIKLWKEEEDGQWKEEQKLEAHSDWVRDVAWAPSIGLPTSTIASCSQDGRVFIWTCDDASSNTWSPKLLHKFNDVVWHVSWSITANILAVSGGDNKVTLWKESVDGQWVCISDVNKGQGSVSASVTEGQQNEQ
UniProt Q99590, 560-583: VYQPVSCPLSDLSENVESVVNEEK
UniProt Q9Y512: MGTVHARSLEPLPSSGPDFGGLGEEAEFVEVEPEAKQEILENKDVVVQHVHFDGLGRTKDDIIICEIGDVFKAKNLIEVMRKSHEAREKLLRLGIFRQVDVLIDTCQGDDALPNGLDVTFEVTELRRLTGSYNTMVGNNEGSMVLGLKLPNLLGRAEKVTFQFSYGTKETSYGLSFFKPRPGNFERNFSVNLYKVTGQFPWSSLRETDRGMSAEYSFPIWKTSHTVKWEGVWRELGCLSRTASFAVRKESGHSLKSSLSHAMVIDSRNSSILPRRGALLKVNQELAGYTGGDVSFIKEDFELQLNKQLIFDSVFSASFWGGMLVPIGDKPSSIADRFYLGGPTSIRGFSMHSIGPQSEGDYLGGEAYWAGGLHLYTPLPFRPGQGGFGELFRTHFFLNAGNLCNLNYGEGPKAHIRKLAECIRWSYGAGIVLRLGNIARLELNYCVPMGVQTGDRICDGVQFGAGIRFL
UniProt Q6SPF0: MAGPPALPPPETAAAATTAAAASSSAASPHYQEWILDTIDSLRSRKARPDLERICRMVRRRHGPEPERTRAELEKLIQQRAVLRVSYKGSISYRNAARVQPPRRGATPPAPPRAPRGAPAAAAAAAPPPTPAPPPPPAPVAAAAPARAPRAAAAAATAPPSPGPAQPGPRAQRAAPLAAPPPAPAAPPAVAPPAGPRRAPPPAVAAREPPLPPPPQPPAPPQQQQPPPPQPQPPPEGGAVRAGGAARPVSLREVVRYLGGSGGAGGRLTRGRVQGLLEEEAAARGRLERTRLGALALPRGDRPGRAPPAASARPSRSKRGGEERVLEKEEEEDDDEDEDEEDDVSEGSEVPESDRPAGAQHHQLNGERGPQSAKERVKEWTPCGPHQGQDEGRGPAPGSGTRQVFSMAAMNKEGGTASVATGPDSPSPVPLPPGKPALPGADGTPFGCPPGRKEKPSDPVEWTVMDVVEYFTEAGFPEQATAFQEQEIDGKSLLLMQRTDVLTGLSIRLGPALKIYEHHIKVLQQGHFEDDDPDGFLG
UniProt Q9UPW6: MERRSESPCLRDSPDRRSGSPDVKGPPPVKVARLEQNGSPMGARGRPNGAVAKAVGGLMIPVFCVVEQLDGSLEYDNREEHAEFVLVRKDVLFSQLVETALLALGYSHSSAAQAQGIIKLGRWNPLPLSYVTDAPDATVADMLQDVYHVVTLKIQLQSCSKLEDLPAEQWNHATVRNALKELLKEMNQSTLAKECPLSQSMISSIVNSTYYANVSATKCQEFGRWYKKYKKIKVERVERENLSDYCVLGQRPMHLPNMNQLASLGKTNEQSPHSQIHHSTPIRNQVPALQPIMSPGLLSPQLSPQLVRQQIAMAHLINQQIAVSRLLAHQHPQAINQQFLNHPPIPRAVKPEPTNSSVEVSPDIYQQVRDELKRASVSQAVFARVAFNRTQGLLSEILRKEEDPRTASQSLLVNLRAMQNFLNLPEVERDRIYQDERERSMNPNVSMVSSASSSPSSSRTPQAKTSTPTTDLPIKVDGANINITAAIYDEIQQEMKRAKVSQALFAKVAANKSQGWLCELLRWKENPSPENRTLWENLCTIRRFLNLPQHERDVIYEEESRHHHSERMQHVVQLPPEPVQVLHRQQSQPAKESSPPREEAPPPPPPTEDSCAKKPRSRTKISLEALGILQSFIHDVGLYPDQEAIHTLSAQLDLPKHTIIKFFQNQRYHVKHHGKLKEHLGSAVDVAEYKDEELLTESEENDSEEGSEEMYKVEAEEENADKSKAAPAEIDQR
UniProt Q9UHD8, 238-257: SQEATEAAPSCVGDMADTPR
UniProt Q96NB2: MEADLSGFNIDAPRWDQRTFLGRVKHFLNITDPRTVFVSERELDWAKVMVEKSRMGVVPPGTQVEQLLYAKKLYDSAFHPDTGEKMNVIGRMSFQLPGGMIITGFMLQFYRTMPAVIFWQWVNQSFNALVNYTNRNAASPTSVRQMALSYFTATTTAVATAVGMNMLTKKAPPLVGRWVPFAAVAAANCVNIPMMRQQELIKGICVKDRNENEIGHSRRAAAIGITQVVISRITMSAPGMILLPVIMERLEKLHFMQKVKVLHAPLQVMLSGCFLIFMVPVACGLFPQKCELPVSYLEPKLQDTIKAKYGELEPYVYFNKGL
UniProt Q86WG5: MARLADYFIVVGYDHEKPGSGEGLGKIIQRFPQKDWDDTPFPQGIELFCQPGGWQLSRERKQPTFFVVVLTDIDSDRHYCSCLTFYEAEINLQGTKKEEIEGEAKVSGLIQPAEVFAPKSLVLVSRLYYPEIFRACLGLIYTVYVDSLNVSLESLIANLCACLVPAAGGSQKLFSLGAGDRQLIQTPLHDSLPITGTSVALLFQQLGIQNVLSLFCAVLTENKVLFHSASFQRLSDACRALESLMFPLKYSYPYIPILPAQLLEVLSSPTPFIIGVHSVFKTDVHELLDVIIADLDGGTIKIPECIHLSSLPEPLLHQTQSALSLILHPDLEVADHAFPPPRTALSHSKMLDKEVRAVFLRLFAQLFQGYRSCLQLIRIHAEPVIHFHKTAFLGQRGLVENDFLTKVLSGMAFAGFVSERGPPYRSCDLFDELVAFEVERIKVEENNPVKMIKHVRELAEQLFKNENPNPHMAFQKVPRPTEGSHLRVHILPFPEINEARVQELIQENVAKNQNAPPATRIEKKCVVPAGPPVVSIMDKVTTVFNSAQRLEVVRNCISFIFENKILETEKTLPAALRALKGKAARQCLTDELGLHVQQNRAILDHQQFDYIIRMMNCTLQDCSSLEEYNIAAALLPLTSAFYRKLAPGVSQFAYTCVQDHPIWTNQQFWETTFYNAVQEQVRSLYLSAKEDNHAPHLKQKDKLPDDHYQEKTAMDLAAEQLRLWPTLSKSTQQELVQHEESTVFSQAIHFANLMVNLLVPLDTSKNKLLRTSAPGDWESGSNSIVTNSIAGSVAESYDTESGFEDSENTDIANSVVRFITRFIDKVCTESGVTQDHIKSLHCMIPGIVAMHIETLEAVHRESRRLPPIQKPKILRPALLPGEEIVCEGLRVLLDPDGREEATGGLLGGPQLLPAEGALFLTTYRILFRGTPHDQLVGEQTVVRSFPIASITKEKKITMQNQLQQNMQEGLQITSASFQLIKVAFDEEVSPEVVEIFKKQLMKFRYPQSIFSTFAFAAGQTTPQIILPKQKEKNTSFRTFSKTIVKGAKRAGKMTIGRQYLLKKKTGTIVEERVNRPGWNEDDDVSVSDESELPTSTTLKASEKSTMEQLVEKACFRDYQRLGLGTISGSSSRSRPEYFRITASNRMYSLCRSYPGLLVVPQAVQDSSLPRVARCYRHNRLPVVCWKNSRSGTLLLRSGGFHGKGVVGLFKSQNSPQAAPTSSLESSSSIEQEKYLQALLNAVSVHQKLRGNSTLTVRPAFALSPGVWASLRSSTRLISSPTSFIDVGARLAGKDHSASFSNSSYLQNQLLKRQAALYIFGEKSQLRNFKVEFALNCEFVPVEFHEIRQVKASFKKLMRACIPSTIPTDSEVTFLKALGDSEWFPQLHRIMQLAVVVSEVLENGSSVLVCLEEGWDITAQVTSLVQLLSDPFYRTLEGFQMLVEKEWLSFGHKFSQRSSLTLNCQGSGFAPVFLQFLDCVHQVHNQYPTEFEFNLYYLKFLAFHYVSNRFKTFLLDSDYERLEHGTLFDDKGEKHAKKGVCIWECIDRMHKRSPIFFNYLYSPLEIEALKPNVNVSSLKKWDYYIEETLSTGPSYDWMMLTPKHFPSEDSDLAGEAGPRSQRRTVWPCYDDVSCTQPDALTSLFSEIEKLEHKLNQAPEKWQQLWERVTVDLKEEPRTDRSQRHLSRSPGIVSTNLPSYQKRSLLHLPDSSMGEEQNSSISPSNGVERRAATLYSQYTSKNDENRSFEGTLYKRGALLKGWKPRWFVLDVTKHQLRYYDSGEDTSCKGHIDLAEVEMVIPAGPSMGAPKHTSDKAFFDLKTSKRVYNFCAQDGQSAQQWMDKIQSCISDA

Target	log2 mean competition ratio
SFXN4 C70 (UniProt Q6P4A7)	0.189
SGPP1 C76 (UniProt Q9BX95)	0.0489
SEMA4D C783 (UniProt Q92854)	-0.342
SEC13 C245 (UniProt P55735)	0.248
SDCCAG8 C649	-0.189
SAFB2 C672	0.0784
SCAF11 C566 (UniProt Q99590)	0.178
SAMM50 C65 (UniProt Q9Y512)	-0.247
SAMD1 C383 (UniProt Q6SPF0)	0.132
SENP1 C60	0.197
SETDB1 C53 (UniProt Q15047)	-0.0509
SATB2 C159 (UniProt Q9UPW6)	0.388
SEPTIN9 C248 (UniProt Q9UHD8)	0.137
SETDB1 C92 (UniProt Q15047)	-0.151
SANBR C164	-0.359
SFXN2 C290 (UniProt Q96NB2)	-0.593
SHROOM3 C1403	0.0484
SETX C1262 (UniProt Q7Z333)	0.582
SHMT2 C91	0.0445

Same assay, conditions: 200 µM; treatment time: 4 h; cell line lysate: HEK293T

Target	log2 mean competition ratio
SFXN4 C70 (UniProt Q6P4A7)	0.167
SGPP1 C76 (UniProt Q9BX95)	-0.608
SEMA4D C783 (UniProt Q92854)	-0.224
SEC13 C245 (UniProt P55735)	0.0381
SDCCAG8 C649	-0.0898
SAFB2 C672	0.0977
SCAF11 C566 (UniProt Q99590)	-0.187
SAMM50 C65 (UniProt Q9Y512)	-0.055
SAMD1 C383 (UniProt Q6SPF0)	0.0386
SENP1 C60	0.0624
SBF2 C525 (UniProt Q86WG5)	-0.153
SETDB1 C53 (UniProt Q15047)	0.223
SATB2 C159 (UniProt Q9UPW6)	-0.146
SEPTIN9 C248 (UniProt Q9UHD8)	-0.121
SETDB1 C92 (UniProt Q15047)	0.0639
SANBR C164	0.164
SFXN2 C290 (UniProt Q96NB2)	0.324
SHROOM3 C1403	-0.356
SETX C1262 (UniProt Q7Z333)	0.0664
SHMT2 C91	0.000689

From the supplement of paper PMC11732987, “Enantioselective OTUD7B fragment discovery through chemoproteomics screening and high-throughput optimisation” (Communications Chemistry, 2025)
